The test system of the assay is P388 leukemia ip, CD2F1 mice, survival T/C. Kind of assay: NCI In Vivo Anticancer Drug Screen. Data for tumor model P388 Leukemia (intraperitoneal) in CD2F1 (CDF1) mice. The conditions noted are these: T/C endpoint: median survival time, higher T/C = longer survival.

Experimental findings from PubChem BioAssay AID330 (DTP/NCI, 2004) are described below.

Each structure is given as a SMILES string. The list does not hold the whole screen: it gathers tests that were run many times, whatever their T/C, doses with no T/C, and many T/C values between a quarter and a half above the control. Other doses and runs of a compound stand elsewhere. T/C: endpoint of the treated group in % of that of the vehicle group. Some doses have a count of surviving animals in place of a T/C: the source holds a T/C of zero for them, seemingly a mark for toxic or unscored doses. Some survivor counts are full or nearly so, which does not show that the dose was tolerated: survival well below the control is almost never listed, so the zero probably covers shortened survival too. Survivors were counted at the toxicity check, usually on the fifth day, unless a day is given; later deaths do not show. Schedule codes are those of the source, taken here to give the interval after Q, in days (D) or hours (H), and the number of doses after X. For survival time, this PubChem deposit counts one and a half times the control or more as active, and values a quarter to a half above the control carry no call in these data; other NCI protocols may use other cut-offs.

With `CS(=O)(=O)c1ccc(/C(=N/N)c2ccccc2)cc1`, the survivor count by setting is: (dose: 100.0 mg/kg/injection, schedule: Q01DX009 (ip), vehicle: Klucel (hydroxypropylcellulose) (HPC)) 4 of 6; (dose: 200.0 mg/kg/injection, schedule: Q01DX009 (ip), vehicle: Klucel (hydroxypropylcellulose) (HPC)) 0 of 6.
Consider `Oc1cccnc1Cl`, for which the T/C (dose: 600.0 mg/kg/injection, schedule: Q01DX009 (ip), vehicle: saline) is 127 % of control.
As for `CS/C(=N\N=C(/C)c1ccccn1)SS/C(=N/N=C(\C)c1ccccn1)SC`, the survivor count (dose: 200.0 mg/kg/injection, schedule: Q01DX005 (ip), vehicle: saline + Tween-80 + alcohol) was 6 of 6.
